Test results reported in the supplement of paper PMC11006884.
This is a selection; strong and weak results do not stand in their true shares. This is a noisy data set.

Chains of the proteins cited; added tags and fusions are not shown. Lines headed by an entry give the natural chain unless they say otherwise; changes in a name come on top.
UniProt Q9NP61: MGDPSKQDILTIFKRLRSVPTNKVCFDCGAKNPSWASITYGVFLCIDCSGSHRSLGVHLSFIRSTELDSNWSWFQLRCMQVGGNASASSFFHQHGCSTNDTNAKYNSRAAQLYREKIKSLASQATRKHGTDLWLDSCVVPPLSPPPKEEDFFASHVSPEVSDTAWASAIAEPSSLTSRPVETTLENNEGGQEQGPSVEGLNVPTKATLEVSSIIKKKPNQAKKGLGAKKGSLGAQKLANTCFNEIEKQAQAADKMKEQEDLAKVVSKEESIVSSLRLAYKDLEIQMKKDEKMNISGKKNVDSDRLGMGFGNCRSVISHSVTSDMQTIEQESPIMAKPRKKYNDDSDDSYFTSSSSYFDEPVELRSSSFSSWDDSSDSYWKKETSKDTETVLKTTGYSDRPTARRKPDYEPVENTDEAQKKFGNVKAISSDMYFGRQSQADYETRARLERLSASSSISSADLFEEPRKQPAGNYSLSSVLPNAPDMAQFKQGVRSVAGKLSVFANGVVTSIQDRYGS
UniProt Q9NQ88: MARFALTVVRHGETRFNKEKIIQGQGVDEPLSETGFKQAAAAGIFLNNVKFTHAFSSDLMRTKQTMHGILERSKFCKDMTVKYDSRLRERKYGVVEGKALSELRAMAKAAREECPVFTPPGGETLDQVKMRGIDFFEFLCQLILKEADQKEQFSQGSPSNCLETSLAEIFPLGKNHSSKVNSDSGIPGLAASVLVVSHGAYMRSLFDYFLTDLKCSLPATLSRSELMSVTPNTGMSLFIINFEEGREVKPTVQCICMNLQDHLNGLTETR
UniProt Q9HCK8: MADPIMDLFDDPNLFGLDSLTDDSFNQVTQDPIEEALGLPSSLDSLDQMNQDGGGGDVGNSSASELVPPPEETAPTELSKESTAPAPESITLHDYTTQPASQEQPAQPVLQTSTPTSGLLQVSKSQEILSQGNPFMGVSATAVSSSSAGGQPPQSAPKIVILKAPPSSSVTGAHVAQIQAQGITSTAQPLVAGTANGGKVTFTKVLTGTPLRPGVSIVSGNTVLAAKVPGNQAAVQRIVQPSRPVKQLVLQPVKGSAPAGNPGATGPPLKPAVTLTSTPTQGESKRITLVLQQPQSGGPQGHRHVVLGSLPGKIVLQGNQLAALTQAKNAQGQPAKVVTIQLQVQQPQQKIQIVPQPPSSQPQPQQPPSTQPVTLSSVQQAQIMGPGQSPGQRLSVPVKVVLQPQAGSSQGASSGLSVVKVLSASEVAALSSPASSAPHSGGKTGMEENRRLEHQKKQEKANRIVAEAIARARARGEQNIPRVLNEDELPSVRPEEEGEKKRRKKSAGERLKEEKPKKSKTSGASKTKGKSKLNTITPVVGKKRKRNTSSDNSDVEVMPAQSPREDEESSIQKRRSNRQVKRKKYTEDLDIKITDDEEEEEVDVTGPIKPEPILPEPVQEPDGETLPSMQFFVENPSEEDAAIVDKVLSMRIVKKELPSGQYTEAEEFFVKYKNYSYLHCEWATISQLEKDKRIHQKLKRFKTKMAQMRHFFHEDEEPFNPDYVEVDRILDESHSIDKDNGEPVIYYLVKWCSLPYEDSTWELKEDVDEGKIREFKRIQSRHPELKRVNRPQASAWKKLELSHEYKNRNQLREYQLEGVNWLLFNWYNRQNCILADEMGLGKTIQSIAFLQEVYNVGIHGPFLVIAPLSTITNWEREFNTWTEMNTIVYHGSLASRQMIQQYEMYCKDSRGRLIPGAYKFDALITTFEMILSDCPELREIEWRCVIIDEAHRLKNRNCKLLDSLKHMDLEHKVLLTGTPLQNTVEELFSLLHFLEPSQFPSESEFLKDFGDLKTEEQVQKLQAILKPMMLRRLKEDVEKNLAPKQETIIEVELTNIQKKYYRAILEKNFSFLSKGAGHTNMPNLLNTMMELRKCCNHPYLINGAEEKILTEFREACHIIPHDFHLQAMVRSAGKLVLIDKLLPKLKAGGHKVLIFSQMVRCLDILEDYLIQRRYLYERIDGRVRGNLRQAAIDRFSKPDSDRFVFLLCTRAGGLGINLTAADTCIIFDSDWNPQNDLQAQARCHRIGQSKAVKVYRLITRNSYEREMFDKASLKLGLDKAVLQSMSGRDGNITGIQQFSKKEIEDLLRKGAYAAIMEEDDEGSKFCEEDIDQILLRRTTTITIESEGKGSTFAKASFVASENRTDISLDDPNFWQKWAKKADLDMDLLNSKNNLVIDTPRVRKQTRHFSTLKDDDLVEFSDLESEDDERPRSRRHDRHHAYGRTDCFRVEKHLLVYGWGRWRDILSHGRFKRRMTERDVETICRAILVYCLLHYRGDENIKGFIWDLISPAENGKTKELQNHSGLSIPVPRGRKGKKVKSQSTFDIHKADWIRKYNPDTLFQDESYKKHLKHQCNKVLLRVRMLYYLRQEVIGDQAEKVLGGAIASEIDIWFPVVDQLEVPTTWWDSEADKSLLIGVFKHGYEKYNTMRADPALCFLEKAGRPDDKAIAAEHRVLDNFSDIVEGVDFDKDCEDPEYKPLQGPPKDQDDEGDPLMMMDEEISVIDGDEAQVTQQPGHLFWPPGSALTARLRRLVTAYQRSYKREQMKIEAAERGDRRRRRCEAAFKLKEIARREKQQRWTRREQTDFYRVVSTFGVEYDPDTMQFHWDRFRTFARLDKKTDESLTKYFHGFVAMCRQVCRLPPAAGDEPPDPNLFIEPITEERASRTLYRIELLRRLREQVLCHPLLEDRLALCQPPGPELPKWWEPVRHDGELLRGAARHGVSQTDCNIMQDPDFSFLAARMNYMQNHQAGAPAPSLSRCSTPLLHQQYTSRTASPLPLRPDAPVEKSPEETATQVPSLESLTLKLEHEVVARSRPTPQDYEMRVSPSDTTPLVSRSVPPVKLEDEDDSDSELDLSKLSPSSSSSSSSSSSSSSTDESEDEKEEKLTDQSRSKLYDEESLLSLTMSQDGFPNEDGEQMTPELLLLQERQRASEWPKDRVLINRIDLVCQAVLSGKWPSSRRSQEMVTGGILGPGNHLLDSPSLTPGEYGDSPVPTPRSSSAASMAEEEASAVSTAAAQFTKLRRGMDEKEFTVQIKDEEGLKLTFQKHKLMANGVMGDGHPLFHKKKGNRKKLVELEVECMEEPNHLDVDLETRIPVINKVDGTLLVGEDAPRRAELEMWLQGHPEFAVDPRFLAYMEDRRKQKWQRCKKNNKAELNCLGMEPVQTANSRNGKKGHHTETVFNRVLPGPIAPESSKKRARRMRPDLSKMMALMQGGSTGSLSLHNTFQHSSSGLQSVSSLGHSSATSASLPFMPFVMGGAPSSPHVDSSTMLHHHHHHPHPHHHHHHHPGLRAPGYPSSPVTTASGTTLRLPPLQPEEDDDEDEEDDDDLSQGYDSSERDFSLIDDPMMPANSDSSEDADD
UniProt Q9NQW7: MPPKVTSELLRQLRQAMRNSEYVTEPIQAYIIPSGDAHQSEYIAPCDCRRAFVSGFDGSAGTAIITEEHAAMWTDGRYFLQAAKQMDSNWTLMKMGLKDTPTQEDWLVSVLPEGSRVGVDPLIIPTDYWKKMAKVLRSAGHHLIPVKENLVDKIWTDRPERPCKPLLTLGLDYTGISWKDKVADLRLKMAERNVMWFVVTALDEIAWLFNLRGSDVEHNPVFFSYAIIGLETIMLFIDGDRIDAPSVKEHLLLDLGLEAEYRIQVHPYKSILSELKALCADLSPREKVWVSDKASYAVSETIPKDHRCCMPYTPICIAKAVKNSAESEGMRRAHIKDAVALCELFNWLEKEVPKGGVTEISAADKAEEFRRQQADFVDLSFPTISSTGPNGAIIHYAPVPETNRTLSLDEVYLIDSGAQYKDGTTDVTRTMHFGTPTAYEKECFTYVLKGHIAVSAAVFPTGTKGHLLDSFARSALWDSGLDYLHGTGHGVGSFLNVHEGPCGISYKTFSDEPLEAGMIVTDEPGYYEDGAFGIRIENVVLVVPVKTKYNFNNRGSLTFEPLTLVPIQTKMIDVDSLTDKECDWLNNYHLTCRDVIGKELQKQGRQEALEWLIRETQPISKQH
UniProt Q9H694: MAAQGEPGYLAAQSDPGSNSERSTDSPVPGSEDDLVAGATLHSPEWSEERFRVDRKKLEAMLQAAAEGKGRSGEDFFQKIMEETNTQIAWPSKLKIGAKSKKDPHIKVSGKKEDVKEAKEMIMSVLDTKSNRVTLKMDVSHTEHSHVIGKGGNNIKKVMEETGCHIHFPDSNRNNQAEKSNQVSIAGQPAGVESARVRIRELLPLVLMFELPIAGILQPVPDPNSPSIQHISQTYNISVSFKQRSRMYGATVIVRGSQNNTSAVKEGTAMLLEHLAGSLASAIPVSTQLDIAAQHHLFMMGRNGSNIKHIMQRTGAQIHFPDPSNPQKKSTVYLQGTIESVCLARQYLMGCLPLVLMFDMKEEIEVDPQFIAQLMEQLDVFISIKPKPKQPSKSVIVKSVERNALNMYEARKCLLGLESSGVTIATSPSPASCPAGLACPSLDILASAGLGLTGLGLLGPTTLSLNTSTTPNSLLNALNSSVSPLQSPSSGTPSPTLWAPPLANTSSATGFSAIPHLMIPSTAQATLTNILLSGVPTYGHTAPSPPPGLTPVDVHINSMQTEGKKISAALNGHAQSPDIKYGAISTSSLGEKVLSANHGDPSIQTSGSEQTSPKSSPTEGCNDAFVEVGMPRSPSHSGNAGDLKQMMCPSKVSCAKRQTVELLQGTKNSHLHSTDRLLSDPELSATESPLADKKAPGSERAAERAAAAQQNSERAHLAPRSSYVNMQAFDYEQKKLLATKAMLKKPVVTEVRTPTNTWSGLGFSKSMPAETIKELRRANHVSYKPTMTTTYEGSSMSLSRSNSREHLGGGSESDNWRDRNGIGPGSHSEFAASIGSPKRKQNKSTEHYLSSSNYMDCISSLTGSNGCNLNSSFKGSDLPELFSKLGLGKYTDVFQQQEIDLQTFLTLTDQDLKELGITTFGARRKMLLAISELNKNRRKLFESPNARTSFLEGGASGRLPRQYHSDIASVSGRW
UniProt Q9NR56: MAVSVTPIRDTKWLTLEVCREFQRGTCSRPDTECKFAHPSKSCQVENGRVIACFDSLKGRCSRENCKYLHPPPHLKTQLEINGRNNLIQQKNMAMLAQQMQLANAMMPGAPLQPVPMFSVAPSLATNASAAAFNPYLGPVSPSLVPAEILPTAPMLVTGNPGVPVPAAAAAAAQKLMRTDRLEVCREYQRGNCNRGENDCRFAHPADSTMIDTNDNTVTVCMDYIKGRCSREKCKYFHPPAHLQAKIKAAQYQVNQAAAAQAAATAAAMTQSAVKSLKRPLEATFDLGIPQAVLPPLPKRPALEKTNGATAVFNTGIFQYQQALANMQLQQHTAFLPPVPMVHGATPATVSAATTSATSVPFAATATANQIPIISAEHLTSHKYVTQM
UniProt Q9H6R7: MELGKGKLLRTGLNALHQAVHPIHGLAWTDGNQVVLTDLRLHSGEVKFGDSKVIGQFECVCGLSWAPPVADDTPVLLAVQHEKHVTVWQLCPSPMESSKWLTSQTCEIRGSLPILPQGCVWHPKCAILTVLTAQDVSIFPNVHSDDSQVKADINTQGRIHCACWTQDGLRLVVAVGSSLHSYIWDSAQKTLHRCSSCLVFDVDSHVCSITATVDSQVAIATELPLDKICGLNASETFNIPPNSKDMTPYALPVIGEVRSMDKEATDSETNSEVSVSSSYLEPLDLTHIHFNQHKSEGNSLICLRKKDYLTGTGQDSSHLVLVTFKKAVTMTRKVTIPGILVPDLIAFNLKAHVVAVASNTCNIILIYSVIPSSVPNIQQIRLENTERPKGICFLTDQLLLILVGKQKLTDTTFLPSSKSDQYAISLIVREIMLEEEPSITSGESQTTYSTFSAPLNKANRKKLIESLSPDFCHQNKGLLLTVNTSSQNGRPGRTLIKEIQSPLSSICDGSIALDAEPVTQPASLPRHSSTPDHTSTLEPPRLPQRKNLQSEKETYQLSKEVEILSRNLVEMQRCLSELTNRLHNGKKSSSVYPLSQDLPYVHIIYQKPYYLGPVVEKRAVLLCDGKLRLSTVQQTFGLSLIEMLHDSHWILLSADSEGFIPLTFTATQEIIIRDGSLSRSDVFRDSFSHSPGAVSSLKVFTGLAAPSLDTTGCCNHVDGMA
UniProt Q9HAV7: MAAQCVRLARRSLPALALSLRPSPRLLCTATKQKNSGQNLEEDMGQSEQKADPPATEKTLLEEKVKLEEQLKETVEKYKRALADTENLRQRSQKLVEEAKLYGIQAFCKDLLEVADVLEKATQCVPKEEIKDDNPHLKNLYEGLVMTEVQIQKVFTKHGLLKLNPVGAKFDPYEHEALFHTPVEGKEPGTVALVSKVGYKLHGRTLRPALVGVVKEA
UniProt Q9NPA3, whole entry: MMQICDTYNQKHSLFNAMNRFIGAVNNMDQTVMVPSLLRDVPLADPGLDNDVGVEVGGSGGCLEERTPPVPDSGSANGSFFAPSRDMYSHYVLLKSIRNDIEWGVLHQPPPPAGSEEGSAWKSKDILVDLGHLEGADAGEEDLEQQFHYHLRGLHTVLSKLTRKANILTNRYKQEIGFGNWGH

Each target was assayed with COC(=O)/C=C/c1ccccc1 [methyl cinnamate] (assay: log2 ratio of iodoacetamide-alkyne labeling of the cysteine site, DMSO over compound (competition); higher = stronger covalent engagement of the cysteine by the compound, active = 1 or more). Details: 500 µM; treatment time 1 h; system: HEK293T cell lysate.
How it was run: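 For each cysteine, the log2 competition ratio is mean control-channel reporter intensity over mean compound-channel reporter intensity. HEK293T lysate (2 mg/mL) was exposed to vehicle or electrophile (500 µM, 1 h, ambient temperature), labelled with iodoacetamide alkyne (1 h), clicked to sCIP-TMT reagents, digested overnight with trypsin at 37 °C, streptavidin-enriched and analysed by Orbitrap Eclipse LC-MS/MS with FAIMS and FragPipe. Cysteines quantified in only one of three replicates, each with duplicate channels, were excluded.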
For ARFGAP3 C312 (UniProt Q9NP61), the “log2 ratio of iodoacetamide-alkyne labeling” value (from here on “log2 ratio”) was inactive: 0.418.
In the case of UniProt Q9NQ88_C114, the “log2 ratio” value is reported as inactive: 0.13.
With C17orf75 C288 (UniProt Q9HAS0) the “log2 ratio” value was inactive: 0.213.
CHD8 C1980 (UniProt Q9HCK8) was tested, and the “log2 ratio” value was inactive: 0.195.
With UniProt Q9NSY1_C912 the “log2 ratio” value was inactive: 0.413.
For XPNPEP1 C342 (UniProt Q9NQW7), the “log2 ratio” value was inactive: -0.302.
With BIRC6 C3404 (UniProt Q9NR09) the “log2 ratio” value was inactive: 0.115.
For PNPLA8 C714 (UniProt Q9NP80), the “log2 ratio” value was inactive: 0.222.
In the case of BICC1 C621 (UniProt Q9H694), the “log2 ratio” value is reported as inactive: 0.495.
GLOD4 C269 (UniProt Q9HC38) was tested, and the “log2 ratio” value was inactive: -0.00484.
With VTA1 C38 (UniProt Q9NP79) the “log2 ratio” value was inactive: 0.129.
For ZNF106 C1069 (UniProt Q9H2Y7), the “log2 ratio” value was inactive: 0.194.
For MBNL1 C27 (UniProt Q9NR56), the “log2 ratio” value was inactive: 0.254.
In the case of TTC12 C525 (UniProt Q9H892), the “log2 ratio” value is reported as inactive: 0.31.
For PNO1 C64 (UniProt Q9NRX1), the “log2 ratio” value was inactive: 0.0827.
With UniProt Q9H6R7_C472 the “log2 ratio” value was inactive: 0.257.
GRPEL1 C124 (UniProt Q9HAV7) was tested, and the “log2 ratio” value was inactive: 0.339.
In the case of SCAF1 C675 (UniProt Q9H7N4), the “log2 ratio” value is reported as inactive: 0.38.
In the case of RNPEP C181 (UniProt Q9H4A4), the “log2 ratio” value is reported as inactive: 0.00105.
In the case of DCP1A C149 (UniProt Q9NPI6), the “log2 ratio” value is reported as inactive: 0.00251.
For UniProt Q9NPA3_C62, the “log2 ratio” value was inactive: 0.114.
With MDN1 C95 (UniProt Q9NU22) the “log2 ratio” value was inactive: 0.234.
